# Data taken from PMC8523698, “Preclinical characterization of an intravenous coronavirus 3CL protease inhibitor for the potential treatment of COVID19” (Nature Communications, 2021).
# Several values for one entry are separate records, joined by “and”; a condition that tells them apart may be missing. Equal values may be shown once. Further values from the same series stand in other lists.
# Tested on: HCoV-229E
# Experiment: Viral CPE assay in MRC-5 cells (CellTiter Glo)
# Assay type: cell-based
# Settings: plus 0.5 uM efflux inhibitor
smiles,measurement,setting,value
COc1cccc2[nH]c(C(=O)N[C@@H](CC(C)C)C(=O)N[C@@H](C[C@@H]3CCNC3=O)C(=O)CO)cc12 [PF-00835231-00],% Well Effect,"0.000938825 uM, EC50 run 17-Apr-2020",2.65% and 6.47%
same,% Well Effect,"0.000949 uM, EC50 run 22-may-2020",5.07% and -3.54%
same,% Well Effect,"0.00297326 uM, EC50 run 17-Apr-2020",-5.58% and 0.60%
same,% Well Effect,"0.00297326 uM, EC50 run 24-Apr-2020",-11.31% and -11.03%
same,% Well Effect,"0.003002 uM, EC50 run 22-may-2020",0.48% and 1.64%
same,% Well Effect,"0.00941631 uM, EC50 run 17-Apr-2020",-0.15% and 6.87%
same,% Well Effect,"0.0298215 uM, EC50 run 17-Apr-2020",17.63% and 12.83%
same,% Well Effect,"0.0298215 uM, EC50 run 24-Apr-2020",-2.34% and -5.65%
same,% Well Effect,"0.0944446 uM, EC50 run 17-Apr-2020",97.09% and 89.01%
same,% Well Effect,"0.0944446 uM, EC50 run 24-Apr-2020",26.00% and 31.06%
same,% Well Effect,"0.094893 uM, EC50 run 22-may-2020",71.50% and 72.43%
same,% Well Effect,"0.299106 uM, EC50 run 17-Apr-2020",102.72% and 106.40%
same,% Well Effect,"0.299106 uM, EC50 run 24-Apr-2020",63.03% and 59.11%
same,% Well Effect,"0.300053 uM, EC50 run 22-may-2020",90.68% and 94.90%
same,% Well Effect,"0.947269 uM, EC50 run 17-Apr-2020",100.61% and 103.03%
same,% Well Effect,"0.947269 uM, EC50 run 24-Apr-2020",62.85% and 57.32%
same,% Well Effect,"0.948767 uM, EC50 run 22-may-2020",91.30% and 94.57%
same,% Well Effect,"3 uM, EC50 run 17-Apr-2020",99.68% and 104.80%
same,% Well Effect,"3 uM, EC50 run 22-may-2020",94.06%
same,% Well Effect,"3 uM, EC50 run 24-Apr-2020",59.78%
